At least one compound was matched to its structure with a doubt left.
What was measured:
Format in all cases: cell-based
[1] = test system: Adiponectin gene expression in 3T3-L1 cells; experiment: qPCR adiponectin gene expression in 3T3-L1 cells; settings: 72 hours incubation, A 5.0 μg/ml, B 50 μM, C 1.0 μM
Description: • DMEM • 10% heat inactivated FCS • Compound A—5.0 μg/ml • Compound B-50 μM • Compound C-1.0 μM • Compound A+B • Compound A+C Protocol 3T3-L1 cell line • DMEM • 10% heat inactivated FCS • Compound A-[…] • Compound B-50 μM • Compound C-1.0 μM • Compound A+B • Compound A+C
In the of presence of: • 0.25 μM Dexamethasone & • 1 μg/ml Insulin • Therein A=pentosan, B=indomethacin, and C=pioglitazone.
Cells were stimulated at day 4 when they were sub confluent. After 72 hours of incubation, RNA was isolated from the cells.

Ppargc1a = Ppargc1a log2Foldchanges, RNA isolated from stimulated KS-cells; settings: 3 and 7 days stimulation
Excerpt: Therein A=pentosan, B-indomethacin, and C=pioglitazone. The RNA is isolated after 3 and 7 days stimulation in KS-cells, respectively. Ppargcla is considered particularly relevant for mitochondrial activity. A higher value represents a higher activity.

KS-483 cells = experiment: qPCR gene expression in KS-483 cells (FIG. 4, gene not named); settings: A 5 μg/ml, B 10 μM, C 1 μM

Compound: CCc1ccc(CCOc2ccc(CC3SC(=O)NC3=O)cc2)nc1 (stereo not drawn) [Compound C, pioglitazone]
- effect on Adiponectin gene expression (FIG. 1) [1]: show adiponectin gene expression
- effect on changes in Ppargc1a activity (in words) (Ppargc1a): no measurable effect
- effect in FIG. 4 (gene expression, gene not named) (KS-483 cells): some effect
